Results are given in words; binding and its absence hold for the method and conditions named. Binding seen in cells or lysates may run through a third protein. These calls come from enrichment with a bait or labelling near it, and not all partners need be listed. For some assays here: Tags and fused reporters may be left off the sequences shown.
B1: AT1G80870 (protein, UniProt Q9SAH3 1-692)
chain: MPSRPNPTRPKLFHNRTKTLFLILTISSSLVIFFAILYFIYHLWISLLNRSRTIPFDVAAASPLKLQLFTYKELKLATNDFDESNVIGKGGSGTVFRGITRDGKLFAVKRLDNLSIQTETEFQNELQILGGLKSSFLVTLLGYCVEKNHRFLIYEYMPNKSLQELLFNEDGDSCLNWERRFGIILDVAKALEFMHFGCDPPVIHGDIKPSNVLLDSEFRAKISDFGLSRVKVEGGYGVDLFSQELSGNFGGESTPQTAIGTPTHHEVDFALALQASSSSKNSRTSRNIKEMSLNSMSLAMDGETKGKEVSNDVVLSCEDHEFDQGKEMNLLSPNSVLDLGKGSKQWGRDWWWKQEGSGELCSKDYVREWIGSQIDTANPDWDDDKKVITTPELGVSTRTIDKAEHRDESGLNESRFDTLEEKFAKEEISERKNKRSKNKKKKHRNMEEWWKEEEHQEEMNNKKKIGVLRIKFKNHLKFPHFRYCFRQKGENSVHDREGEAAGEFSFRRGWRRKSNSSSKKKKKNNNGSMGSEMWSGDLFSRELSSTTSMRGTLCYIAPEYGGGCCYLMEKGDIYSFGVLILVIVSGRRPLHVLASPMKLEKANLVSWCRQLAQSGNVLELVDEKLKDGYNKEEAGLCINLALACLQKAPELRPDVSEVVRILRGEMDISSTAFEFSPSPPGKVYGSRSKRRS
B2: GSTU7 (protein, UniProt Q9ZW24 1-227)
chain: MAERSNSEEVKLLGMWASPFSRRIEIALTLKGVSYEFLEQDITNKSSLLLQLNPVHKMIPVLVHNGKPISESLVILEYIDETWRDNPILPQDPYERTMARFWSKFVDEQIYVTAMKVVGKTGKERDAVVEATRDLLMFLEKELVGKDFLGGKSLGFVDIVATLVAFWLMRTEEIVGVKVVPVEKFPEIHRWVKNLLGNDVIKKCIPPEDEHLKYIRARMEKLNIKSA
B3: RTM3 (protein, UniProt D5K228 1-301)
chain: MGKQFDKKITWTIKNFASLLSDLIYSDHFVVGGCKWHLRAYPKGYNNANSLSLFLGVAVPTSLPSGWRRHTKFRLTLVNQLSDKLSQSKLNELEQWFDEKTTNWGLSSMCPLNEIHAKDSGFLLNGELKIVVEIKVLETIGKLDVTEETSTITETVDVNGFQLLPSQAKSVSRMFAKHPELASDLRPKNPNLRTGYMSLLLSLIETLSQLPQQMSKDDLLDAYDALGSMRDAGFKLDWLEKKLYEVSEKKENEEASETGLQEMEEELKDMKQKCLEMEALVEKEKAKVSTAKAPISFDDIV
B4: KASI (protein, UniProt P52410 47-473)
chain: ASTVSAPKRETDPKKRVVITGMGLVSVFGNDVDAYYEKLLSGESGISLIDRFDASKFPTRFGGQIRGFSSEGYIDGKNERRLDDCLKYCIVAGKKALESANLGGDKLNTIDKRKAGVLVGTGMGGLTVFSEGVQNLIEKGHRRISPFFIPYAITNMGSALLAIDLGLMGPNYSISTACATSNYCFYAAANHIRRGEADMMIAGGTEAAIIPIGLGGFVACRALSQRNDDPQTASRPWDKARDGFVMGEGAGVLVMESLEHAMKRGAPIVAEYLGGAVNCDAHHMTDPRADGLGVSSCIERCLEDAGVSPEEVNYINAHATSTLAGDLAEINAIKKVFKSTSGIKINATKSMIGHCLGAAGGLEAIATVKAINTGWLHPSINQFNPEQAVDFDTVPNEKKQHEVDVAISNSFGFGGHNSVVAFSAFKP
B5: CAT3 (protein, UniProt Q42547 1-492)
chain: MDPYKYRPSSAYNAPFYTTNGGAPVSNNISSLTIGERGPVLLEDYHLIEKVANFTRERIPERVVHARGISAKGFFEVTHDISNLTCADFLRAPGVQTPVIVRFSTVVHERASPETMRDIRGFAVKFYTREGNFDLVGNNTPVFFIRDGIQFPDVVHALKPNPKTNIQEYWRILDYMSHLPESLLTWCWMFDDVGIPQDYRHMEGFGVHTYTLIAKSGKVLFVKFHWKPTCGIKNLTDEEAKVVGGANHSHATKDLHDAIASGNYPEWKLFIQTMDPADEDKFDFDPLDVTKIWPEDILPLQPVGRLVLNRTIDNFFNETEQLAFNPGLVVPGIYYSDDKLLQCRIFAYGDTQRHRLGPNYLQLPVNAPKCAHHNNHHEGFMNFMHRDEEINYYPSKFDPVRCAEKVPTPTNSYTGIRTKCVIKKENNFKQAGDRYRSWAPDRQDRFVKRWVEILSEPRLTHEIRGIWISYWSQADRSLGQKLASRLNVRPSI
B6: phosphofructokinase family protein (AT1G20950) (protein, UniProt Q9SYP2 1-614)
chain: MDSDFGIPRELSPLQQLRSQYKPELPPCLQGTTVRVELGDGTTVAEAADSHTMARAFPHTLGQPLAHFLRETAQVPDAHIITELPSVRVGIVFCGRQAPGGHNVIWGLFEALKVHNAKSTLLGFLGGSEGLFAQKTLEITDDILQTYKNQGGYDLLGRTKDQIKTTEQVNAALKACTDLKLDGLVIIGGVISNTDAAHLAEFFAAAKCSTKVVGVPVTTNGDLKNQFVEANVGFDTICKVNSQLISNACTDALSAEKYYYFIRLMGRKHSHVALECTLQSHPNMVILGEEVAASKLTIFDIAKQICDAVQARAVEDKNHGVILIPEGLIVSIPEVYALLKEIHGLLRQGVSADKISTQLSPWSSALFEFLPPFIKKQLLLHPESDDSAQLSQIETEKLLAYLVETEMNKRLKEGTYKGKKFNAICHFFGYQARGSLPSKFDCDYAYVLGHICYHILAAGLNGYMATVTNLKSPVNKWKCGATPITAMMTVKHWSQDASYTLTSIGRPAIHPAMVDLKGKAYDLLRQNAQKFLMEDLYRNPGPLQYDGPGADAKAVSLCVEDQDYMGRIKKLQEYLDQVRTIVKPGCSQDVLKAALSVMASVTDVLTTISSNGGQ

Amino acid sequences for entries named in this document (tags omitted).
UniProt Q9SQI2: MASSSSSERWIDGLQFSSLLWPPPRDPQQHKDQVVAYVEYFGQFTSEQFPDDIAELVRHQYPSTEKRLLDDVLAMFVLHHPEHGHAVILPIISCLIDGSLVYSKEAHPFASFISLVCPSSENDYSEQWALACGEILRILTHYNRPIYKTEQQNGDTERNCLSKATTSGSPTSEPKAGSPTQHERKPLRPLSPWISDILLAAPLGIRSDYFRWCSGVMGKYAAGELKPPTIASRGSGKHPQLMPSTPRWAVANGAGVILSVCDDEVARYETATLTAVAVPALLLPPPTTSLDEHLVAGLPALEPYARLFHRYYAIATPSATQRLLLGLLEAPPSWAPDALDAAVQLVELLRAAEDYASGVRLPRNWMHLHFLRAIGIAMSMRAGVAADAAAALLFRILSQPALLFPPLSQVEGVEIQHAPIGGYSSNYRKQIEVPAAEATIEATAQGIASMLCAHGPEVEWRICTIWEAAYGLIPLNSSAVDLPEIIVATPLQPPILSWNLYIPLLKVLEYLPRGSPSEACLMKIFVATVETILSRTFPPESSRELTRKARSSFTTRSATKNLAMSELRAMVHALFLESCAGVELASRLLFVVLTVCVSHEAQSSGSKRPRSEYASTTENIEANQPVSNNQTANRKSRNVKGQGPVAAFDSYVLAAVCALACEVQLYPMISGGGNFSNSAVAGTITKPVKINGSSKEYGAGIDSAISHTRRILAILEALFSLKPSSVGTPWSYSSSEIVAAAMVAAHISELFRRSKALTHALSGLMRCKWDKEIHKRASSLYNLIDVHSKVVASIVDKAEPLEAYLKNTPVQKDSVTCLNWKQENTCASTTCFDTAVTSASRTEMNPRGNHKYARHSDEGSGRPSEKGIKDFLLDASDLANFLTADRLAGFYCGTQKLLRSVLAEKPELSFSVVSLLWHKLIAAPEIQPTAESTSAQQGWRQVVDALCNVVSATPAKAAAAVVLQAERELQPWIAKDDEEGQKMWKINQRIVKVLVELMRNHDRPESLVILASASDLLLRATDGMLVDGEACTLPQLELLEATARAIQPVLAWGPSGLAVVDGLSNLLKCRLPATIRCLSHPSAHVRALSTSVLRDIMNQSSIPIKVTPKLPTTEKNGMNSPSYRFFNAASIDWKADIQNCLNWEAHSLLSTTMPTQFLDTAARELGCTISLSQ

Experiments:
[1] = target: GIGANTEA with C-terminal 3xFLAG-6xHis tag (GI‐3F6H) (Arabidopsis thaliana) (UniProt Q9SQI2); experiment: affinity purification with mass spectrometry; qualitative study: tandem affinity purification (FLAG and His tags) of GI-3F6H from plants grown in long days and harvested at ZT13 on day 14; RIPA or SII buffer; on-bead digest, peptide counts; WT plants as control
[2] = target: GIGANTEA with C-terminal 3xFLAG-6xHis tag (GI‐3F6H) (Arabidopsis thaliana) (UniProt Q9SQI2); experiment: affinity purification with mass spectrometry; time series study: tandem affinity purification (FLAG and His tags) of GI-3F6H from rosettes grown in short days, six time points plus ZT31; on-bead digest, label-free quantitation; WT plants as control
[3] = target: GIGANTEA with C-terminal 3xFLAG-6xHis tag (GI‐3F6H) (Arabidopsis thaliana) (UniProt Q9SQI2); experiment: affinity purification with mass spectrometry; preliminary study: tandem affinity purification of GI-3F6H, silver-stained gel, LC-MS of excised bands; plants harvested at ZT8

Binder | binding [1] | binding [2] | binding [3]
B1 | binds | – | –
B2 | binds | – | –
B3 | binds | – | –
B4 | – | binds | binds
B5 | – | binds | binds
B6 | – | binds | –

Source: article PMC6373471
